No constants are given. Whether binding was seen depends on the method and setting. Binding seen in cells or lysates may run through a third protein. A yes stands for co-enrichment or nearness to the bait. Other partners may have been found.
T1: potassium channel tetramerization domain containing 19 (KCTD19), endogenous in mouse testis (mouse (endogenous in testis)) (UniProt Q562E2)
T1 sequence: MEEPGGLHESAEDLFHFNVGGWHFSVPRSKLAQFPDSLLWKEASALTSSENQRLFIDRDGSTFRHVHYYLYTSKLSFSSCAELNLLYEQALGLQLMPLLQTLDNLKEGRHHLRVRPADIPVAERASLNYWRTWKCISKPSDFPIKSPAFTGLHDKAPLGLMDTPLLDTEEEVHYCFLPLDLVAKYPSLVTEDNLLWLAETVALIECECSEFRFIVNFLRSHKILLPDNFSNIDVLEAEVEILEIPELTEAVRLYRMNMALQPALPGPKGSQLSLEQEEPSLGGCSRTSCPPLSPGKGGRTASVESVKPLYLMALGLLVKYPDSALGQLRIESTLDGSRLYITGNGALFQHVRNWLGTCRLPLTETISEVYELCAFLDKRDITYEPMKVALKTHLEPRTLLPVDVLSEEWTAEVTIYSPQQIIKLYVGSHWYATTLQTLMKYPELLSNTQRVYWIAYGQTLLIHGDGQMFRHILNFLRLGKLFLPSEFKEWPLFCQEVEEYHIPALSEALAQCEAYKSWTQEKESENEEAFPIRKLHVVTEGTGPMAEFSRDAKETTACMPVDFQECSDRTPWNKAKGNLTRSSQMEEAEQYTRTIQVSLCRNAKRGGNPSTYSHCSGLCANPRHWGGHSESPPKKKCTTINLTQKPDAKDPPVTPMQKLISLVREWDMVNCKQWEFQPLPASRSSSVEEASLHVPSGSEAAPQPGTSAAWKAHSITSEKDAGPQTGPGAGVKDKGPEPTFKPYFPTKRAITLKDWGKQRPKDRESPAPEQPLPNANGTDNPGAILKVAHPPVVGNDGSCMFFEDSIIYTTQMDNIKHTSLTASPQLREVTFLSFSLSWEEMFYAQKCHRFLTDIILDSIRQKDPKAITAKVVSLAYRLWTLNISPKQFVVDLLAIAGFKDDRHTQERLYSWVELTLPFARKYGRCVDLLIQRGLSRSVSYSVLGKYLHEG

Protein sequences, listed by entry. Tags and fused reporters are not part of them.
UniProt O09106: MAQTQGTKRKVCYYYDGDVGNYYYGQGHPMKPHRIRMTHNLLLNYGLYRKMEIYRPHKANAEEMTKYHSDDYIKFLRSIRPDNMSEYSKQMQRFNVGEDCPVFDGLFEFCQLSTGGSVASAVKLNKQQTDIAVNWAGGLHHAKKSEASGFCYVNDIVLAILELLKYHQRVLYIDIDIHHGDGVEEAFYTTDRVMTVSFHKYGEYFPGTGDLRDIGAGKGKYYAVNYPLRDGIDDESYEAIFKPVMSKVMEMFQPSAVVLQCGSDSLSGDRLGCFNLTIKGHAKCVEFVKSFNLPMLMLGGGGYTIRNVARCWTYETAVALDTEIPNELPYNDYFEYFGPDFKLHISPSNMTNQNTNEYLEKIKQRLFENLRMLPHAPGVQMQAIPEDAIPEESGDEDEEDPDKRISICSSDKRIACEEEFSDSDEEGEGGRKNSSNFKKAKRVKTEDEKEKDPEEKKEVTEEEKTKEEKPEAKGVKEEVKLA
UniProt Q80TT8: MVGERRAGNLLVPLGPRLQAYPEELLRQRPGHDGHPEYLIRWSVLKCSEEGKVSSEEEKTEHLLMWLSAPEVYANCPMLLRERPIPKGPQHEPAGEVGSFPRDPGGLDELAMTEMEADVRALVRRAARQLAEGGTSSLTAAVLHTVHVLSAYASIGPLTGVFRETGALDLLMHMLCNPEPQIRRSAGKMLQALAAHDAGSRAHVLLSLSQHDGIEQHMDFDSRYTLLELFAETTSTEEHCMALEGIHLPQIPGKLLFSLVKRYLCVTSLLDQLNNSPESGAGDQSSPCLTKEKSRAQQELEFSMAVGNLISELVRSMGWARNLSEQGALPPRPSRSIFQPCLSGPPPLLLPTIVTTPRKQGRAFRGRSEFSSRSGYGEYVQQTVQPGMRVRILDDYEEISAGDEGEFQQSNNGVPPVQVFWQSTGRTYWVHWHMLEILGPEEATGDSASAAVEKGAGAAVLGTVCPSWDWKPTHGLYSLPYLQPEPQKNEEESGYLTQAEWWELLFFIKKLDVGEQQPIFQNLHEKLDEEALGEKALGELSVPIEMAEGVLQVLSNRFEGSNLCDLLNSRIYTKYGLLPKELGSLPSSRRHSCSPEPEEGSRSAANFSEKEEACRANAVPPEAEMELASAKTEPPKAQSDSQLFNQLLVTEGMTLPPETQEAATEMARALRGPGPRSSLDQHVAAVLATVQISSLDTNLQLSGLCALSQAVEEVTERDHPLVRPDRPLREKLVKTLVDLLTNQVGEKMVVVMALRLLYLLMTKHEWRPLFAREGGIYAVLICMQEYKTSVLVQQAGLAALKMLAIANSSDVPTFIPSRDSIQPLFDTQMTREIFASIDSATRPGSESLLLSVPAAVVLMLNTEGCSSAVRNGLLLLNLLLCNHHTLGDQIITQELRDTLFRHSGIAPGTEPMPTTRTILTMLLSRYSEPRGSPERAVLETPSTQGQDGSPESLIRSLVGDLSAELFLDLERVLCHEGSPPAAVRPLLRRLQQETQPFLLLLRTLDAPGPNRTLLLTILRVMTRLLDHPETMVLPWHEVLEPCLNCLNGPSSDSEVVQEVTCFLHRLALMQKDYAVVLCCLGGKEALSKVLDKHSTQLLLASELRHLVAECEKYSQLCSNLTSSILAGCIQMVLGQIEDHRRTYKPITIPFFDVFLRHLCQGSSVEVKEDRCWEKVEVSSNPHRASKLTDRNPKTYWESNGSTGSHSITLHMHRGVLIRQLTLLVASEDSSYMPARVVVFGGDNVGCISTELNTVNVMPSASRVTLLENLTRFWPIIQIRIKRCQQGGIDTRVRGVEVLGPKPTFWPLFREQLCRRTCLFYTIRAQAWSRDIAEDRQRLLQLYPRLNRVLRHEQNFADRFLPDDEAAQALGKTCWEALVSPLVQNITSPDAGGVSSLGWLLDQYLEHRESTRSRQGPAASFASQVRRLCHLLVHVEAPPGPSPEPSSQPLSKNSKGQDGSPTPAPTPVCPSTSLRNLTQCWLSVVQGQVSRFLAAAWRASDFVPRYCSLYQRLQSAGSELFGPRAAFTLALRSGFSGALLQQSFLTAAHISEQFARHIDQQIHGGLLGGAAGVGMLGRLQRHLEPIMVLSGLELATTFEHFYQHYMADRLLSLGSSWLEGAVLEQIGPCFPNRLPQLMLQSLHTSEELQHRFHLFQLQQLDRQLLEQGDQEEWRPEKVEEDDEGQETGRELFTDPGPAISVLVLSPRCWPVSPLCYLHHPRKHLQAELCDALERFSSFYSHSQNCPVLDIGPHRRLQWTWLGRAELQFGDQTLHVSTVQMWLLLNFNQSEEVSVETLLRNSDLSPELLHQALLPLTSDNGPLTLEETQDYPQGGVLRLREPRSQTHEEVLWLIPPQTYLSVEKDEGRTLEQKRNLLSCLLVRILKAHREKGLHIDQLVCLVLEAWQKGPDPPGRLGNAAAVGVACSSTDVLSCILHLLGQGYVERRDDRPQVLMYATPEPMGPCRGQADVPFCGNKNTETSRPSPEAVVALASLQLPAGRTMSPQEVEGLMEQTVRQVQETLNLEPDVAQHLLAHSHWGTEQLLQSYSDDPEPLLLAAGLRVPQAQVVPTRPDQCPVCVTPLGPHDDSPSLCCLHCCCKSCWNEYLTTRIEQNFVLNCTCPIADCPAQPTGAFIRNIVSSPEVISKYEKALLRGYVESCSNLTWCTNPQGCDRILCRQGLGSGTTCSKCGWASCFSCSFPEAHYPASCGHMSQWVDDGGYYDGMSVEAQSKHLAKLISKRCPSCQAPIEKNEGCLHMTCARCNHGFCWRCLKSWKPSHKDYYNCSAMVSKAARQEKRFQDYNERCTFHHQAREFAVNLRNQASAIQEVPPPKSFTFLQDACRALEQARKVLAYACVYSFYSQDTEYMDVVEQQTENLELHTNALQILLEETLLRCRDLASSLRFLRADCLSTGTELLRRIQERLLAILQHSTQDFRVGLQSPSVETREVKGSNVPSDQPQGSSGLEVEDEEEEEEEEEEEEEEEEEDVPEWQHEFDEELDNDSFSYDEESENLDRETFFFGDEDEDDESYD


What follows are molecules tested against T1, potassium channel tetramerization domain containing 19 (KCTD19), endogenous in mouse testis (mouse (endogenous in testis)) (assay: affinity purification with mass spectrometry; juvenile (PND21) WT testis lysate against Kctd19 del/del testis lysate as control; IP with anti-KCTD19 rabbit pAb or rat mAb #19-3 on Dynabeads Protein G; NP40 lysis buffer, 1 h at 4°C, 3 washes; LC-MS/MS).

Molecule	binding
histone deacetylase 1 (HDAC1), endogenous in mouse testis (from UniProt O09106 1-482)	binds
DNTTIP1, endogenous in mouse testis (protein, UniProt Q99LB0 1-328) MGATGDTEQPRGPGGAERGGLELGDAGAAGQPVLTNPWNIMIKHRQVQRRGRRSQMTTSFTDPAISMDLLRAVLQPSINEEIQGVFNKYMKFFQKAALNVRDNVGEEVDAEQLIQEACRSCLEQAKLLFSDGEKVIPRLAHELPGIKRGRQAEEESHRGSPIPKKRKGRPPGHVLSNDRAAAGMVWKQKSCEPIRREGPKWDPARLNESTTFVLGSRANKALGMGGTRGRIYIKHPHLFKYAADPQDKHWLAEQHHMRATGGKMAYLLIEEDIRDLAASDDYRGCLDLKLEELKSFVLPSWMVEKMRKYMETLRTENEHRAAEAPPQT	binds

More lines, now with the values ahead:

binding	Molecule
binds	CUL9, endogenous in mouse testis (from UniProt Q80TT8 1-2530)
binds	zinc finger protein 541 (ZFP541), endogenous in mouse testis (protein, UniProt Q0GGX2-1 1-1363) MEPYSLGEEGALPSEGHLPSFSESQVLNCSDTLNRDLGPSTRDLLYAGLSGLDLDPSLSTSDMPSEVLEDNLDTLSLYSGKDSDSVKLLEEYADSESQTSLQDLGLGALKVPKEADEGGRATGSTRKGKRQHSSPQNPLLDCSLCGKVFSSASSLSKHYLTHSQERKHVCKVCSKAFKRQDHLTGHMLTHQKTKPFVCIEQGCSKSYCDYRSLRRHYEVQHGVCILKETPPEEEAYGDPTHNHDVANQPPPSGLRSLGPPEARSPGSVLPNRDLLRCIVSSIVHQKIPSPGPAVGPSDTEARSSACACPTSLGSSSCTPASTPVALGTLGSEIPEETHPPRKEAATEVFTPVQSRAAENGVPDPPESELESESPRLQRPSSLEGWPEGSSLPACLPLFRGHSVPSGSQPSSHNFQWLRNLPGCPKNKGSNVFMVHKPPAVASREGSEGGGSGPSSTPTSVEPSPSLGTTQEELLPFPPALLKAPGEASSEVRQAAGEDETWAPKKCKPDCESFPWQSPTELGLQDAQNPGGLPSDATPLFRQLFMKSQESLVSHEQMQVLQMIAKSQRIFSHTQVATASAQRPGPEGKQSTLKPLQGPWPPQTLPPAPTVDSFQIGPGHSEPEGSPVRRRKTMPAVSRETSPGGPRRDTKGGPKVASAPPSLTGPGLLPSRNPDSSSLAKGTLDLGDIIPNAGSRQSQLGGDEPAGTQLVGKQGQGENGLASGAMRGEKGPACPRGGGYRLFSGHPRAQRFSGFRKEKVKMDVCCAASPSQVAMASFSSAGPLADPPRDMKSKLTIFNRIQGGNIYRLPHPVKEESLAGGCHQPNGGPTDWMESKSTFVCKNCSQMFYTEKGLSSHMCFHSDQWPSPRGKQEQQVKGQMVASVKRKAGREEGAVEDMKRHYDCSSSEPQDVTILSMLVSSGSCGVTPVVLSSLLQGQEKDGEERDSKESCQYRKRKKRPQPKALFAPPAPSALGEPGPGGCHQSCLHSPVFLVDHLLKGLFQCSPYTPPPMLSPIREGSGLYFNTLCSTSRAGPHLISPVLDQVDSSFGICVVKDDTKISIEPHINVGSRFQAEIPELQERLLARVDENVASLVWKPWGDVMTNPETQDRVMELCNVACSSVMPGGGTNLELALHCLHDAQGSVQVALETLLLRGPQKPRTHPLADYRYTGSDIWTPMEKRLFKKAFCAHKKDFYLIHKMIQTKSVAQCVEYYYIWKKMVKFDCGRAPGLEKRGRRELDEVERTEDKVTCSPRERPTHRPTPELKIKTKSYRRESILHSSPSAAPKRTPEPPGSVESQGVFPCRECERVFDKIKSRNAHMKRHRLQEHVEPVRVKWPVKPYPLKEEEEEEEEELGADMGPLQW

— PMC8104389
